## Library screen at single concentrations

Protein sequences, listed by entry. Tags and fused reporters are not part of them. Residues count along the entry.
UniProt Q4DA54, 1-478: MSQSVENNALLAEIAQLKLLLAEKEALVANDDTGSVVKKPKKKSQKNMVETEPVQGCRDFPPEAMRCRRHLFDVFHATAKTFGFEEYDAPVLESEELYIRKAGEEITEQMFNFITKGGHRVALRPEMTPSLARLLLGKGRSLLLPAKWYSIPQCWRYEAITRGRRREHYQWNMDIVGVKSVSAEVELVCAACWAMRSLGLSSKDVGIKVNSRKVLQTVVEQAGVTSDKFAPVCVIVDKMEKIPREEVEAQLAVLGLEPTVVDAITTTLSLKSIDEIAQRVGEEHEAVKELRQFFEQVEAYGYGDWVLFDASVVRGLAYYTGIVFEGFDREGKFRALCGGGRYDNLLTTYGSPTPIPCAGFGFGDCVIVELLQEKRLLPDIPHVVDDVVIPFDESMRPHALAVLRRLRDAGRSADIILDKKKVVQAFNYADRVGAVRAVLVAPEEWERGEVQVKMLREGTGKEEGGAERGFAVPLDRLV
UniProt P9WNZ1, whole entry: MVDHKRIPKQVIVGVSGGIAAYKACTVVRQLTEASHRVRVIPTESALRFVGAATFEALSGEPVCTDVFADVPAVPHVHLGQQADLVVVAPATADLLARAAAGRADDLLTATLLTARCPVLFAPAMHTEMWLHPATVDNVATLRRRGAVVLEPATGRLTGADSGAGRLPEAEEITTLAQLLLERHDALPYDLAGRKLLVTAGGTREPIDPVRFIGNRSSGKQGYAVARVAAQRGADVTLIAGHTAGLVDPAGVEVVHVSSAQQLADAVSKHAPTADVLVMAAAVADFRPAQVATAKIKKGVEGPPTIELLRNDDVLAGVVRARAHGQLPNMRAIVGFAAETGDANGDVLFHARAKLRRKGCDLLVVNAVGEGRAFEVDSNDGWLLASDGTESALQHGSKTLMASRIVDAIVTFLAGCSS
UniProt P9WPC5, whole entry: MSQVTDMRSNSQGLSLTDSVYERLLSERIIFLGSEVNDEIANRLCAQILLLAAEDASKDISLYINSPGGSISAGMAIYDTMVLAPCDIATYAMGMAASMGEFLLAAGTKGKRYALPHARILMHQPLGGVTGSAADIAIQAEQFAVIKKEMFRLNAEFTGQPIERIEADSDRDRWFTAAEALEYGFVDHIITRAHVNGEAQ
UniProt P9WPC3, whole entry partner: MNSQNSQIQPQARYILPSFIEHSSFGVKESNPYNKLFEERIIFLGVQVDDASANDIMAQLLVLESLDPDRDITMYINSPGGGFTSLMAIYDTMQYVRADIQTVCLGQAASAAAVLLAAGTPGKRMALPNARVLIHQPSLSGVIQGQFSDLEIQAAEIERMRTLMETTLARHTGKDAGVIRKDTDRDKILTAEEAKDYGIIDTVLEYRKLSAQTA
UniProt Q8IDJ8, 1-583: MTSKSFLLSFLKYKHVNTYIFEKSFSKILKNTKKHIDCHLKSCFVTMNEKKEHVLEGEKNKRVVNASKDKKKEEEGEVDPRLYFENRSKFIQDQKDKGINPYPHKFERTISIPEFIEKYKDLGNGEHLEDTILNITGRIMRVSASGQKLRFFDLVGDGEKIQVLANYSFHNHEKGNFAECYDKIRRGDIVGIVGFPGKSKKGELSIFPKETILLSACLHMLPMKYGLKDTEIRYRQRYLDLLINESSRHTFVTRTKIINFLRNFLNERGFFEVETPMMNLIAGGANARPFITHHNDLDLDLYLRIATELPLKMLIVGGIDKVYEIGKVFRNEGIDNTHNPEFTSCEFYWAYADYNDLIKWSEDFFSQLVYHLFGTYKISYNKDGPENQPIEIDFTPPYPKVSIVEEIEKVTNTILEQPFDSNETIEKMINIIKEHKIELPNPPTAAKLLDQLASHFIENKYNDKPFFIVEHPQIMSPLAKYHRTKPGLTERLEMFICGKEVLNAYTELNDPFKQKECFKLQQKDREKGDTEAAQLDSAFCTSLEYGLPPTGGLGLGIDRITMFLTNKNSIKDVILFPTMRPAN

Source: ChEMBL document CHEMBL3988442, “University of Dundee, Small-Polar-MMV Screening Library” (2021).

A: 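Cell assay of Leishmania donovani living inside macrophages; the read-out is not stated. Concentration: 30 µM. Higher reads as stronger inhibition (inferred: compounds with an IC50 in retests scored well above the rest). Size under these conditions: about 69,000 compounds, about 1,000 of them at 50% or above in at least one test.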
B: 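Enzyme assay of histidyl-tRNA synthetase; the read-out is not stated. Target: Histidine-tRNA ligase, Trypanosoma cruzi CL Brener (UniProt Q4DA54). Tested at 30 µM. Higher reads as stronger inhibition (inferred: compounds with an IC50 in retests scored well above the rest). Of about 69,000 compounds tested this way, about 31 (0.045%) reached 50% or more in at least one test.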
C: 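Coenzyme A biosynthesis protein CoaBC, Mycobacterium tuberculosis (UniProt P9WNZ1). Enzyme assay of CoaBC with a phosphate dye (Biomol Green) read at 650 nm. Concentration: 30 µM. Higher reads as stronger inhibition, judged from the few compounds that gave an IC50. Most strong results did not repeat in a second test. Size under these conditions: about 67,000 compounds, about 40 of them at 50% or above in at least one test.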
D: 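Protease assay of ClpP1P2, read by the AMC dye that it sets free. Target: ClpP1P2, Mycobacterium tuberculosis (UniProt P9WPC5 and UniProt P9WPC3). Tested at 50 µM. Direction is inferred from only a few compounds that gave an IC50; most scored high, so higher reads as stronger inhibition. Most other retested compounds had strongly negative values. Of about 69,000 compounds tested this way, about 10 (0.015%) reached 50% or more in at least one test.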
E: 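Lysine-tRNA ligase, Plasmodium falciparum 3D7 (UniProt Q8IDJ8). Enzyme assay of the cytosolic lysyl-tRNA synthetase in 384-well plates, read by luminescence. Compounds at 30 µM. Higher reads as stronger inhibition, judged from the few compounds that gave an IC50. Size under these conditions: about 69,000 compounds, about 49 of them at 50% or above in at least one test.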

Each number is a percent effect as filed. The record does not define 0% and 100%; most values in the screen are far below 50% and negative numbers occur (in some assays of this library far below -100). The compounds are a random part of those screened. Two or more numbers in one place are separate tests of the same structure; such repeats can differ widely. A dash means the value is not listed here; it may have been measured.

structure,A,B,C,D,E
CNC(=O)[C@@H]1C[C@H]2CN(Cc3c(C)noc3C)C[C@H]2N1C(C)C,-,5.155%,1.97%,-4.224%,1.313%
CC(Nc1cnn(C)c(=O)c1Cl)c1ccc(F)cc1 (stereo unspecified),17%,6.211%,2.405%,-6.942%,0.4485%
Cc1nc(C)n(CC2CCCN(Cc3ccc4c(c3)OCCO4)C2)n1 (stereo unspecified),34.65%,6.977%,7.895%,-9.107%,0.9056%
Cc1n[nH]c(=O)c2c(NC(=O)CN3CCOC(C)C3)oc(C)c12 (stereo unspecified),0.1722%,-0.7634%,2.073%,33.81%,0.04689%
O=C1CCC2(CCN(Cc3ccsc3)CC2)N1Cc1ccccc1,-6.083%,4.854%,2.188%,-7.289%,2.851%
COc1nc(N2CCC(CC(N)=O)CC2)ncc1Br,27.58%,2.941%,1.276%,-3.165%,3.88%
CCn1ncc2c1CN(C(=O)Cc1ccccn1)CC2COC (stereo unspecified),-,4.082%,3.832%,-10.28%,1.13%
Cc1cnc2n1CCN(C)C21CCN(CC2CC2)CC1.O=C(O)C(F)(F)F.O=C(O)C(F)(F)F.O=C(O)C(F)(F)F,26.92%,-,-,-,-
Cn1cccc1C(=O)N1C[C@@H](OCc2cccnc2)[C@H]2OCCC[C@H]21,-,9.091%,-2.101%,-5.565%,2.181%
Fc1ccc(OCCCN2CCCC(Cn3cncn3)C2)cc1 (stereo unspecified),21.13%,10.6%,7.578%,11.63%,1.488%
CS(=O)(=O)NC1CCc2[nH]c(=O)ccc2C1 (stereo unspecified),16.91%,12.85%,2.788%,1.924%,4.07%
Cn1cc([C@@H]2CN(S(=O)(=O)c3cccnc3)C[C@H]2N)c2ccncc21,-,8.333%,1.84%,19.62%,-0.626%
COc1ccccc1N1CCC(CNCc2cccc(O)c2)C1 (stereo unspecified),40.81%,-0.7519%,3.44%,-1.335%,0.3853%
CN(C)c1nccc(NC(=O)c2ccncc2)n1,15.4%,2.105%,7.57%,-10.02%,2.84%
O=C(O)C(F)(F)F.O=C(O)C(F)(F)F.O=C1N(c2ccsc2)CCC12CCCN(Cc1cccnc1)C2 (stereo unspecified),14.64%,-,-,-,-
Cc1nn(C)c(C)c1CC(C)NC(=O)NCc1ccn(C(C)C)n1 (stereo unspecified),25.18%,3.448%,6.349%,-2.731%,4.635%
COc1cc(N2CCc3ncnc(-c4ccncc4)c3CC2)ncn1,-,3.448%,7.582%,5.486%,1.863%
Cc1cccc(COC[C@@]23CCC[C@@H]2CN(C(=O)Cc2ccco2)C3)n1,-,13.4%,3.202%,-2.389%,9.127%
NC(=O)C1CCN(C(=O)NC2CCc3cc(F)ccc32)CC1 (stereo unspecified),-10.14%,0.8772%,5.396%,-0.1074%,3.315%
Cc1occc1C(=O)N1CCO[C@H]2[C@H](OCc3cccnc3)CC[C@@H]21,-,6.863%,3.909%,-15.51%,-0.136%
Cc1ccccc1NC(=O)N1CCN(Cc2noc(C3CC3)n2)CC1,5.61%,-0.5634%,0.3817%,-16.56%,-0.4238%
Cc1ccc(CN(Cc2cc(=O)n3cccc(C)c3n2)C(C)C)o1,17.53%,3.175%,3.099%,8.39%,2.534%
Cc1cnc(C)c(-c2cc(O)c3c(c2)CN(c2nccs2)CCO3)n1,-0.3447%,0.9662%,3.106%,-14.43%,3.176%
CS(=O)(=O)NCC1Cc2ccccc2O1 (stereo unspecified),-3.204%,0.5525%,1.911%,-4.619%,2.684%
CSCC(=O)N1CCCC(c2cc(C)[nH]n2)C1 (stereo unspecified),19.44%,1.458%,7.098%,-28.06%,-1.968%
Cc1ccoc1C(=O)N1CCCc2c(c(=O)n(C)n2C)C1,-4.039% & 2.702%,2.151%,-6.105%,-2.832%,-10.75%
N#Cc1ccc(N2CCC3(CCC(=O)N3Cc3ccncc3)CC2)nc1,-,2.513%,4.827%,-4.748%,3.605%
Cc1cc(C[C@@H]2COC[C@@H]2NC(=O)CNC(=O)N(C)C)on1,10.41%,-0.5236%,-0.6173%,-6.328%,-5.503%
CCOCCN1CCCC(c2cc(C(N)=O)[nH]n2)C1 (stereo unspecified),-33.54%,1.132%,2.999%,-6.371%,3.218%
Cc1nc(C)c(CC(=O)Nc2nnc(C3CC3)s2)c(=O)[nH]1,3.058%,4.118%,4.859%,-15.51%,-0.2668%
O=C(C1CCOCC1)N1CC[C@H]2[C@H]1CCN2c1nncs1,-,7.595%,-,2.792%,8.039%
CCN1CC2(CC1=O)CN(Cc1ccccn1)CCN(C(C)=O)C2.O=C(O)C(F)(F)F.O=C(O)C(F)(F)F (stereo unspecified),0.8966%,-,-,-,-
O=C(Nc1cccnc1)[C@H]1CN(Cc2cccs2)C[C@H]2OCC[C@@H]12,-,4.124%,1.724%,-12.9%,3.261%